PubChem BioAssay AID743121 – NCATS, 2013
The deposit covers about 26,000 reagents; shown is a part drawn at random. Of all reagents, 167 (0.63%) were called active. 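Calls are per gene from RSA p-values that are not deposited; an individual active-marked siRNA can sensitise only weakly.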 Unmarked entries are inactive. The numbers tell different reagents against one gene apart. Further read-outs or replicates are left out here.

Screen: 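Knock-downs that sensitise breast cancer cells to camptothecin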 (primary screen)
Cells: MDA-MB-231 cells, a human breast cancer line
Knock-down reagent: single siRNA against human genes, 20 nM siRNA (0.8 pmol per well)
Duration: 120 h (drug added 48 h after transfection, read 72 h later)
Conditions: camptothecin 20 nM (about EC30) for 72 h; vehicle 0.1% DMSO in parallel plates
Measured: 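Cell viability by ATP luminescence (CellTiter-Glo) as % of non-targeting siRNA wells, and the log2 ratio of viability without drug over viability with camptothecin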
Scale: log2 vehicle/camptothecin viability: higher = stronger sensitisation to camptothecin
Rule for the call: 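Active genes have an RSA gene-level p-value below 0.001, computed from the ratios of their separate siRNAs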

{"gene":"LAMC2 (laminin subunit gamma 2)","reagent":1,"log2 vehicle/camptothecin viability":-0.314}
{"gene":"LAMC2 (laminin subunit gamma 2)","reagent":2,"log2 vehicle/camptothecin viability":-0.119}
{"gene":"LAMC2 (laminin subunit gamma 2)","reagent":3,"log2 vehicle/camptothecin viability":-0.0986}
{"gene":"CTLA4 (cytotoxic T-lymphocyte associated protein 4)","reagent":1,"log2 vehicle/camptothecin viability":0.00337}
{"gene":"CTLA4 (cytotoxic T-lymphocyte associated protein 4)","reagent":2,"log2 vehicle/camptothecin viability":0.00183}
{"gene":"CTLA4 (cytotoxic T-lymphocyte associated protein 4)","reagent":3,"log2 vehicle/camptothecin viability":-0.195}
{"gene":"CTLA4 (cytotoxic T-lymphocyte associated protein 4)","reagent":4,"log2 vehicle/camptothecin viability":-0.318}
{"gene":"IFNAR2 (interferon alpha and beta receptor subunit 2)","reagent":1,"log2 vehicle/camptothecin viability":-0.125}
{"gene":"IFNAR2 (interferon alpha and beta receptor subunit 2)","reagent":2,"log2 vehicle/camptothecin viability":-0.0754}
{"gene":"IFNAR2 (interferon alpha and beta receptor subunit 2)","reagent":3,"log2 vehicle/camptothecin viability":-0.12}
{"gene":"IFNAR2 (interferon alpha and beta receptor subunit 2)","reagent":4,"log2 vehicle/camptothecin viability":-0.131}
{"gene":"OR51B4 (olfactory receptor family 51 subfamily B member 4)","reagent":1,"log2 vehicle/camptothecin viability":0.236}
{"gene":"OR51B4 (olfactory receptor family 51 subfamily B member 4)","reagent":2,"log2 vehicle/camptothecin viability":0.817}
{"gene":"OR51B4 (olfactory receptor family 51 subfamily B member 4)","reagent":3,"log2 vehicle/camptothecin viability":-0.682}
{"gene":"OR51B4 (olfactory receptor family 51 subfamily B member 4)","reagent":4,"log2 vehicle/camptothecin viability":-0.292}
{"gene":"PSMA2 (proteasome 20S subunit alpha 2)","reagent":1,"log2 vehicle/camptothecin viability":-0.29}
{"gene":"PSMA2 (proteasome 20S subunit alpha 2)","reagent":2,"log2 vehicle/camptothecin viability":-0.115}
{"gene":"PSMA2 (proteasome 20S subunit alpha 2)","reagent":3,"log2 vehicle/camptothecin viability":1.27}
{"gene":"PSMA2 (proteasome 20S subunit alpha 2)","reagent":4,"log2 vehicle/camptothecin viability":-0.625}
{"gene":"HES6 (hes family bHLH transcription factor 6)","reagent":1,"log2 vehicle/camptothecin viability":0.0203}
{"gene":"HES6 (hes family bHLH transcription factor 6)","reagent":2,"log2 vehicle/camptothecin viability":0.00213}
{"gene":"HES6 (hes family bHLH transcription factor 6)","reagent":3,"log2 vehicle/camptothecin viability":0.0357}
{"gene":"HES6 (hes family bHLH transcription factor 6)","reagent":4,"log2 vehicle/camptothecin viability":-0.475}
{"gene":"MAP2K1 (mitogen-activated protein kinase kinase 1)","reagent":1,"log2 vehicle/camptothecin viability":0.11}
{"gene":"MAP2K1 (mitogen-activated protein kinase kinase 1)","reagent":2,"log2 vehicle/camptothecin viability":-0.449}
{"gene":"MAP2K1 (mitogen-activated protein kinase kinase 1)","reagent":3,"log2 vehicle/camptothecin viability":0.218}
{"gene":"MAP2K1 (mitogen-activated protein kinase kinase 1)","reagent":4,"log2 vehicle/camptothecin viability":-0.0497}
{"gene":"TAAR8 (trace amine associated receptor 8)","reagent":1,"log2 vehicle/camptothecin viability":-0.841}
{"gene":"TAAR8 (trace amine associated receptor 8)","reagent":2,"log2 vehicle/camptothecin viability":0.324}
{"gene":"TAAR8 (trace amine associated receptor 8)","reagent":3,"log2 vehicle/camptothecin viability":-0.0822}
{"gene":"TAAR8 (trace amine associated receptor 8)","reagent":4,"log2 vehicle/camptothecin viability":-0.237}
{"gene":"PTPN6 (protein tyrosine phosphatase non-receptor type 6)","reagent":1,"log2 vehicle/camptothecin viability":-0.232}
{"gene":"PTPN6 (protein tyrosine phosphatase non-receptor type 6)","reagent":2,"log2 vehicle/camptothecin viability":-0.31}
{"gene":"PTPN6 (protein tyrosine phosphatase non-receptor type 6)","reagent":3,"log2 vehicle/camptothecin viability":0.0297}
{"gene":"PTPN6 (protein tyrosine phosphatase non-receptor type 6)","reagent":4,"log2 vehicle/camptothecin viability":0.017}
{"gene":"TNK2 (tyrosine kinase non receptor 2)","reagent":1,"log2 vehicle/camptothecin viability":-0.777}
{"gene":"TNK2 (tyrosine kinase non receptor 2)","reagent":2,"log2 vehicle/camptothecin viability":-0.382}
{"gene":"TNK2 (tyrosine kinase non receptor 2)","reagent":3,"log2 vehicle/camptothecin viability":-0.249}
{"gene":"TNK2 (tyrosine kinase non receptor 2)","reagent":4,"log2 vehicle/camptothecin viability":-0.114}
{"gene":"PTAFR (platelet activating factor receptor)","reagent":1,"log2 vehicle/camptothecin viability":-0.578}
{"gene":"PTAFR (platelet activating factor receptor)","reagent":2,"log2 vehicle/camptothecin viability":-0.0736}
{"gene":"PTAFR (platelet activating factor receptor)","reagent":3,"log2 vehicle/camptothecin viability":-0.44}
{"gene":"PTAFR (platelet activating factor receptor)","reagent":4,"log2 vehicle/camptothecin viability":-0.0452}
{"gene":"PPP1R12A (protein phosphatase 1 regulatory subunit 12A)","reagent":1,"log2 vehicle/camptothecin viability":-0.22}
{"gene":"PPP1R12A (protein phosphatase 1 regulatory subunit 12A)","reagent":2,"log2 vehicle/camptothecin viability":-0.286}
{"gene":"PPP1R12A (protein phosphatase 1 regulatory subunit 12A)","reagent":3,"log2 vehicle/camptothecin viability":0.0123}
{"gene":"PPP1R12A (protein phosphatase 1 regulatory subunit 12A)","reagent":4,"log2 vehicle/camptothecin viability":-0.259}

Already shown: 6 of the entries above.
{"gene":"CTLA4 (cytotoxic T-lymphocyte associated protein 4)","reagent":3,"log2 vehicle/camptothecin viability":-0.195}
{"gene":"CTLA4 (cytotoxic T-lymphocyte associated protein 4)","reagent":4,"log2 vehicle/camptothecin viability":-0.318}
{"gene":"IFNAR2 (interferon alpha and beta receptor subunit 2)","reagent":1,"log2 vehicle/camptothecin viability":-0.125}
{"gene":"IFNAR2 (interferon alpha and beta receptor subunit 2)","reagent":2,"log2 vehicle/camptothecin viability":-0.0754}
{"gene":"IFNAR2 (interferon alpha and beta receptor subunit 2)","reagent":3,"log2 vehicle/camptothecin viability":-0.12}
{"gene":"IFNAR2 (interferon alpha and beta receptor subunit 2)","reagent":4,"log2 vehicle/camptothecin viability":-0.131}
